Data published in the supplement of paper PMC8728848.
Some of the results follow.

What was measured:
Experiment in all cases: glycan array binding signal (z-score within array); higher = stronger binding
Conditions in all cases: glycan notation: IUPAC condensed, linker removed
[1] = molecular target: GlcNAc(b1-2)Man(a1-3)[GlcNAc(b1-2)Man(a1-6)]Man(b1-4)GlcNAc(b1-4)GlcNAc
Summary of the method: (§1)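 The binding signal is a Z-score computed within each array and averaged over linkers. Arrays of the same protein sequence at different concentrations or buffers were also averaged together. Data originate from 3228 arrays in the Consortium for Functional Glycomics database, kept only where the protein sequence was available.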

[2] = molecular target: GlcNAc(b1-2)Man(a1-3)[GlcNAc(b1-2)Man(a1-6)]Man(b1-4)GlcNAc(b1-4)[Fuc(a1-6)]GlcNAc
Summary of the method: as §1

[3] = molecular target: GlcNAc(b1-2)Man(a1-3)[GlcNAc(b1-4)][GlcNAc(b1-2)Man(a1-6)]Man(b1-4)GlcNAc(b1-4)GlcNAc
Summary of the method: as §1

[4] = molecular target: GlcNAc(b1-2)Man(a1-3)[GlcNAc(b1-4)][GlcNAc(b1-2)Man(a1-6)]Man(b1-4)GlcNAc(b1-4)[Fuc(a1-6)]GlcNAc
Summary of the method: as §1

[5] = molecular target: GlcNAc(b1-2)[GlcNAc(b1-4)]Man(a1-3)[GlcNAc(b1-2)Man(a1-6)]Man(b1-4)GlcNAc(b1-4)GlcNAc
Summary of the method: as §1

[6] = molecular target: GlcNAc(b1-2)[GlcNAc(b1-4)]Man(a1-3)[GlcNAc(b1-4)][GlcNAc(b1-2)Man(a1-6)]Man(b1-4)GlcNAc(b1-4)GlcNAc
Summary of the method: as §1

[7] = molecular target: GlcNAc(b1-2)[GlcNAc(b1-4)]Man(a1-3)[GlcNAc(b1-4)][GlcNAc(b1-2)[GlcNAc(b1-6)]Man(a1-6)]Man(b1-4)GlcNAc(b1-4)GlcNAc
Summary of the method: as §1

[8] = molecular target: GlcNAc(b1-2)[GlcNAc(b1-4)]Man(a1-3)[GlcNAc(b1-4)][GlcNAc(b1-2)[GlcNAc(b1-6)]Man(a1-6)]Man(b1-4)GlcNAc(b1-4)[Fuc(a1-6)]GlcNAc
Summary of the method: as §1

[9] = molecular target: GlcNAc(b1-2)[GlcNAc(b1-6)]Man(a1-6)[GlcNAc(b1-2)Man(a1-3)]Man(b1-4)GlcNAc(b1-4)GlcNAc
Summary of the method: as §1

[10] = molecular target: GlcNAc(b1-2)[GlcNAc(b1-6)]Man(a1-6)[GlcNAc(b1-2)Man(a1-3)]Man(b1-4)GlcNAc(b1-4)[Fuc(a1-6)]GlcNAc
Summary of the method: as §1

[11] = molecular target: GlcNAc(b1-2)[GlcNAc(b1-6)]Man(a1-6)[GlcNAc(b1-4)][GlcNAc(b1-2)Man(a1-3)]Man(b1-4)GlcNAc(b1-4)GlcNAc
Summary of the method: as §1

[12] = molecular target: GlcNAc(b1-3)Fuc
Summary of the method: as §1

[13] = molecular target: GlcNAc(b1-3)Gal
Summary of the method: as §1

[14] = molecular target: GlcNAc(b1-3)Gal(b1-3)GalNAc
Summary of the method: as §1

[15] = molecular target: GlcNAc(b1-3)Gal(b1-4)Glc
Summary of the method: as §1

[16] = molecular target: GlcNAc(b1-3)Gal(b1-4)GlcNAc
Summary of the method: as §1

[17] = molecular target: GlcNAc(b1-3)Gal(b1-4)GlcNAc(b1-2)Man(a1-3)[GlcNAc(b1-3)Gal(b1-4)GlcNAc(b1-2)Man(a1-6)]Man(b1-4)GlcNAc(b1-4)GlcNAc
Summary of the method: as §1

[18] = molecular target: GlcNAc(b1-3)Gal(b1-4)GlcNAc(b1-2)Man(a1-3)[GlcNAc(b1-3)Gal(b1-4)GlcNAc(b1-2)Man(a1-6)]Man(b1-4)GlcNAc(b1-4)[Fuc(a1-6)]GlcNAc
Summary of the method: as §1

[19] = molecular target: GlcNAc(b1-3)Gal(b1-4)GlcNAc(b1-2)[GlcNAc(b1-3)Gal(b1-4)GlcNAc(b1-6)]Man(a1-6)[GlcNAc(b1-3)Gal(b1-4)GlcNAc(b1-2)Man(a1-3)]Man(b1-4)GlcNAc(b1-4)GlcNAc
Summary of the method: as §1

[20] = molecular target: GlcNAc(b1-3)Gal(b1-4)GlcNAc(b1-3)Gal(b1-4)GlcNAc
Summary of the method: as §1

[21] = molecular target: GlcNAc(b1-3)Gal(b1-4)GlcNAc(b1-3)Gal(b1-4)GlcNAc(b1-2)Man(a1-3)[GlcNAc(b1-3)Gal(b1-4)GlcNAc(b1-3)Gal(b1-4)GlcNAc(b1-2)Man(a1-6)]Man(b1-4)GlcNAc(b1-4)GlcNAc
Summary of the method: as §1

[22] = molecular target: GlcNAc(b1-3)Gal(b1-4)GlcNAc(b1-3)Gal(b1-4)GlcNAc(b1-2)Man(a1-3)[GlcNAc(b1-3)Gal(b1-4)GlcNAc(b1-3)Gal(b1-4)GlcNAc(b1-2)Man(a1-6)]Man(b1-4)GlcNAc(b1-4)[Fuc(a1-6)]GlcNAc
Summary of the method: as §1

[23] = molecular target: GlcNAc(b1-3)Gal(b1-4)GlcNAc(b1-3)Gal(b1-4)GlcNAc(b1-2)[GlcNAc(b1-3)Gal(b1-4)GlcNAc(b1-3)Gal(b1-4)GlcNAc(b1-6)]Man(a1-6)[GlcNAc(b1-3)Gal(b1-4)GlcNAc(b1-3)Gal(b1-4)GlcNAc(b1-2)Man(a1-3)]Man(b1-4)GlcNAc(b1-4)[Fuc(a1-6)]GlcNAc
Summary of the method: as §1

[24] = molecular target: GlcNAc(b1-3)Gal(b1-4)GlcNAc(b1-3)Gal(b1-4)GlcNAc(b1-3)Gal(b1-4)GlcNAc(b1-2)Man(a1-3)[GlcNAc(b1-3)Gal(b1-4)GlcNAc(b1-3)Gal(b1-4)GlcNAc(b1-3)Gal(b1-4)GlcNAc(b1-2)Man(a1-6)]Man(b1-4)GlcNAc(b1-4)GlcNAc
Summary of the method: as §1

[25] = molecular target: GlcNAc(b1-3)Gal(b1-4)GlcNAc(b1-3)Gal(b1-4)GlcNAc(b1-3)Gal(b1-4)GlcNAc(b1-2)Man(a1-3)[GlcNAc(b1-3)Gal(b1-4)GlcNAc(b1-3)Gal(b1-4)GlcNAc(b1-3)Gal(b1-4)GlcNAc(b1-2)Man(a1-6)]Man(b1-4)GlcNAc(b1-4)[Fuc(a1-6)]GlcNAc
Summary of the method: as §1

[26] = molecular target: GlcNAc(b1-3)Gal(b1-4)GlcNAc(b1-3)Gal(b1-4)GlcNAc(b1-3)Gal(b1-4)GlcNAc(b1-2)[GlcNAc(b1-3)Gal(b1-4)GlcNAc(b1-3)Gal(b1-4)GlcNAc(b1-3)Gal(b1-4)GlcNAc(b1-6)]Man(a1-6)[GlcNAc(b1-3)Gal(b1-4)GlcNAc(b1-3)Gal(b1-4)GlcNAc(b1-3)Gal(b1-4)GlcNAc(b1-2)Man(a1-3)]Man(b1-4)GlcNAc(b1-4)[Fuc(a1-6)]GlcNAc
Summary of the method: as §1

[27] = molecular target: GlcNAc(b1-3)Gal(b1-4)GlcNAc(b1-3)Gal(b1-4)GlcNAc(b1-3)Gal(b1-4)GlcNAc(b1-3)Gal(b1-4)GlcNAc(b1-2)Man(a1-3)[GlcNAc(b1-3)Gal(b1-4)GlcNAc(b1-3)Gal(b1-4)GlcNAc(b1-3)Gal(b1-4)GlcNAc(b1-3)Gal(b1-4)GlcNAc(b1-2)Man(a1-6)]Man(b1-4)GlcNAc(b1-4)GlcNAc
Summary of the method: as §1

[28] = molecular target: GlcNAc(b1-3)Gal(b1-4)GlcNAc(b1-3)Gal(b1-4)GlcNAc(b1-3)Gal(b1-4)GlcNAc(b1-3)Gal(b1-4)GlcNAc(b1-2)Man(a1-3)[GlcNAc(b1-3)Gal(b1-4)GlcNAc(b1-3)Gal(b1-4)GlcNAc(b1-3)Gal(b1-4)GlcNAc(b1-3)Gal(b1-4)GlcNAc(b1-2)Man(a1-6)]Man(b1-4)GlcNAc(b1-4)[Fuc(a1-6)]GlcNAc
Summary of the method: as §1

[29] = molecular target: GlcNAc(b1-3)Gal(b1-4)GlcNAc(b1-3)Gal(b1-4)GlcNAc(b1-3)Gal(b1-4)GlcNAc(b1-3)Gal(b1-4)GlcNAc(b1-2)[GlcNAc(b1-3)Gal(b1-4)GlcNAc(b1-3)Gal(b1-4)GlcNAc(b1-3)Gal(b1-4)GlcNAc(b1-3)Gal(b1-4)GlcNAc(b1-6)]Man(a1-6)[GlcNAc(b1-3)Gal(b1-4)GlcNAc(b1-3)Gal(b1-4)GlcNAc(b1-3)Gal(b1-4)GlcNAc(b1-3)Gal(b1-4)GlcNAc(b1-2)Man(a1-3)]Man(b1-4)GlcNAc(b1-4)[Fuc(a1-6)]GlcNAc
Summary of the method: as §1

[30] = molecular target: GlcNAc(b1-3)Gal(b1-4)GlcNAc(b1-3)Gal(b1-4)GlcNAc(b1-3)GalNAc
Summary of the method: as §1

B1: GroEL (Clostridium difficile), Q18CT5 (protein)
chain: MAKEIKFSEETRRALEAGVNKLADTVKVTLGPKGRNVILDKKFGSPLITNDGVTIAKEIELEDRFENMGAQLVKEVATKTNDVAGDGTTTATVLAQAIIREGLKNVTAGANPILLRKGIQKAVTVAVEELKNQSRIVETQEAISQVASISAGDEEVGKLIAEAMEIVGKDGVITVEESQTMNTELDAVEGMQFDRGFVSAYMVTDVDKMEAVLNDPYILITDKKISNIQELLPVLEQIVQQGKKLLIIAEDVEGEALSTLVVNKLRGTFDVVAVKAPGFGDRRKEMLQDIAILTGAQVISEELGYDLKEADLSMLGRASSVKVTKESTTIVDGSGDKKAIEDRVTQIKHQVEQTTSDFDREKLMERLAKLAGGVAVVKVGAATEVELKERKLRIEDALNATRAAVEEGIVAGGGTAFVSVIPAIGTLIESLEGEVKLGAQIVKKALEEPLRQIAINAGLEGAVIVQNVVNSEAETGFDALNEKYVNMIEAGIVDPTKVSRSALQNAASIASTFLTTEAAVADLPEKEDAGMPGMGGGMPGMM
[1]
  glycan array binding signal (z-score): 0.147
[2]
  glycan array binding signal (z-score): -0.761
[3]
  glycan array binding signal (z-score): 1.32
[4]
  glycan array binding signal (z-score): -1.46
[5]
  glycan array binding signal (z-score): -0.09
[6]
  glycan array binding signal (z-score): -0.391
[7]
  glycan array binding signal (z-score): -0.867
[8]
  glycan array binding signal (z-score): -1.09
[9]
  glycan array binding signal (z-score): 1.98
[10]
  glycan array binding signal (z-score): 0.305
[11]
  glycan array binding signal (z-score): -0.402
[12]
  glycan array binding signal (z-score): -0.968
[13]
  glycan array binding signal (z-score): 0.995
[14]
  glycan array binding signal (z-score): -0.287
[15]
  glycan array binding signal (z-score): -1.1
[16]
  glycan array binding signal (z-score): 1.04
[17]
  glycan array binding signal (z-score): -0.053
[18]
  glycan array binding signal (z-score): -0.033
[19]
  glycan array binding signal (z-score): -0.016
[20]
  glycan array binding signal (z-score): 0.167
[21]
  glycan array binding signal (z-score): 2.2
[22]
  glycan array binding signal (z-score): 0.364
[23]
  glycan array binding signal (z-score): 0.513
[24]
  glycan array binding signal (z-score): 0.196
[25]
  glycan array binding signal (z-score): 0.363
[26]
  glycan array binding signal (z-score): 0.075
[27]
  glycan array binding signal (z-score): 0.471
[28]
  glycan array binding signal (z-score): -0.894
[29]
  glycan array binding signal (z-score): 0.944
[30]
  glycan array binding signal (z-score): -0.758
